Data on 27 compounds can be found in the supplement of paper PMC10735217.

Structures are written as SMILES. The list shows a part of the results. This data set is noisy: repeats of one test often differ as much as different tests do.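 Human kidney-derived cells stably carry a construct in which eight TEAD-binding elements drive luciferase, measured by luminescence in a drug-repurposing library screen. A hit is any compound whose signal exceeds the plate mean by more than five robust Z scores.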

The subject of the assay is HEK293A TEAD-LUC reporter. Briefly: TEAD-luciferase reporter activity (YAP activation), robust Z score vs plate; higher = stronger YAP/TEAD activation. As to conditions: 24 h. On the technique in general: Reporter assays use an easily measured gene product as a stand-in for the process of interest.

`[N-]=[N+]=Nc1c(F)c(F)c(-c2cn3nc(S(=O)CCNC(=O)CCCC[C@@H]4SCC5NC(=O)NC54)sc3n2)c(F)c1F` (some centres undefined): the TEAD-luciferase reporter activity was inactive: 0.514 (compound concentration: 200 nM), inactive: 2.88 (compound concentration: 2 uM) and inactive: 0.947 (compound concentration: 10 uM).

Take `COCC(O)Cn1ccnc1[N+](=O)[O-]` (centres undefined) [Misonidazole]: the TEAD-luciferase reporter activity (compound concentration: 200 nM) is inactive: 0.723, the TEAD-luciferase reporter activity (compound concentration: 2 uM) is inactive: 0.0795 and the TEAD-luciferase reporter activity (compound concentration: 10 uM) was inactive: 0.0506.

For the compound `O=C(N[C@H]1CCN(C(=O)c2cc(C(F)(F)F)cc(C(F)(F)F)c2)[C@H](Cc2ccc(Cl)cc2)C1)c1ccnc2ccccc12`, the TEAD-luciferase reporter activity by setting is: (compound concentration: 200 nM) inactive: -0.449; (compound concentration: 2 uM) inactive: -0.427; (compound concentration: 10 uM) inactive: 3.5.

Regarding `CCc1oc2ccccc2c1C(=O)c1ccc(OCC(=O)O)cc1`, the TEAD-luciferase reporter activity is, setting by setting: (compound concentration: 200 nM) inactive: -0.653; (compound concentration: 2 uM) inactive: -0.427; (compound concentration: 10 uM) inactive: 0.111.

For `Cc1ccc(C(=O)Nc2ccc(S(=O)(=O)O)c3cc(S(=O)(=O)O)cc(S(=O)(=O)O)c23)cc1NC(=O)c1cccc(NC(=O)Nc2cccc(C(=O)Nc3cc(C(=O)Nc4ccc(S(=O)(=O)O)c5cc(S(=O)(=O)O)cc(S(=O)(=O)O)c45)ccc3C)c2)c1` [suramin, NIH], the TEAD-luciferase reporter activity (compound concentration: 200 nM) was inactive: -1.57, the TEAD-luciferase reporter activity (compound concentration: 2 uM) is inactive: -1.07 and the TEAD-luciferase reporter activity (compound concentration: 10 uM) is inactive: 0.116.

With `COCC(=O)N1CCCN(c2nc3ncccc3o2)CC1`, the TEAD-luciferase reporter activity is inactive: -0.458 (compound concentration: 200 nM) and inactive: 0.339 (compound concentration: 10 uM).

Regarding `CCCCCCC(=O)OC[C@H]1O[C@H](O[C@H]2O[C@H](COC(=O)CCCCCC)[C@@H](O)[C@H](O)[C@H]2O)[C@H](O)[C@@H](O)[C@@H]1O`, the TEAD-luciferase reporter activity was inactive: 1.83 (compound concentration: 200 nM), inactive: -1.06 (compound concentration: 2 uM) and inactive: -0.608 (compound concentration: 10 uM).

As to `COc1cc(NC(C)CCCNC2=C(C(C)=O)CCO2)c2ncccc2c1` (centres undefined), the TEAD-luciferase reporter activity was inactive: 1.12 (compound concentration: 200 nM) and inactive: 1.4 (compound concentration: 10 uM).

`COc1cc(NC(C)CCCNC2=C(C(C)=O)CCO2)c2ncccc2c1` (centres undefined) [analog of CDRI-80-53]: the TEAD-luciferase reporter activity (compound concentration: 2 uM) is inactive: -0.943.

Turning to `Cc1cc(-c2c3ccccc3c(Br)c3sc(C)c(C)c23)cc(C)c1O[C@H](Cc1ccccc1)C(=O)O` [Ertiprotafib], the TEAD-luciferase reporter activity runs as follows: (compound concentration: 200 nM) inactive: -1.4; (compound concentration: 2 uM) inactive: -1.39; (compound concentration: 10 uM) inactive: -0.623.

For the compound `O=C(c1ccc(Oc2ccc(F)cc2)nc1)N1CCCN(C2CCC2)CC1`, the TEAD-luciferase reporter activity was inactive: 0.658 (compound concentration: 200 nM), inactive: -0.425 (compound concentration: 2 uM) and inactive: -2.4 (compound concentration: 10 uM).

With `CC(=O)O[C@@H]1CC[C@@]2(C)[C@@H](CC[C@]3(C)[C@@H]2CC=C2[C@@H]4[C@@H](C)[C@H](C)CC[C@]4(C)CC[C@]23C)[C@@]1(C)C(=O)O` [Acetyl-beta-boswellic acid], the TEAD-luciferase reporter activity was inactive: -2.49 (compound concentration: 200 nM), inactive: 0.286 (compound concentration: 2 uM) and inactive: 0.534 (compound concentration: 10 uM).

Consider `COc1ccc(-c2cc(CCCC(=O)N(C)O)sc2-c2ccc(OC)cc2)cc1`, for which the TEAD-luciferase reporter activity (compound concentration: 200 nM) was active: 5.23, the TEAD-luciferase reporter activity (compound concentration: 2 uM) is inactive: -2.28 and the TEAD-luciferase reporter activity (compound concentration: 10 uM) was inactive: -1.53.

In the case of `CS(=O)(=O)c1ccc(NC(=O)Nc2ccccc2)cc1`, the TEAD-luciferase reporter activity is, setting by setting: (compound concentration: 200 nM) inactive: -0.192; (compound concentration: 2 uM) inactive: 0.165; (compound concentration: 10 uM) inactive: -0.948.

Turning to `CNc1cc(-c2csc(N(C)C(=O)c3ccc(F)cc3)n2)ncn1`, the TEAD-luciferase reporter activity by setting is: (compound concentration: 200 nM) inactive: -0.225; (compound concentration: 2 uM) inactive: 0.646; (compound concentration: 10 uM) inactive: -0.489.

For the compound `Nc1nc(N)c2c(n1)NCCC(c1ccccc1)=N2`, the TEAD-luciferase reporter activity (compound concentration: 200 nM) is inactive: -1.27, the TEAD-luciferase reporter activity (compound concentration: 2 uM) was inactive: 0.8 and the TEAD-luciferase reporter activity (compound concentration: 10 uM) is active: 15.1.

For `FCOC(C(F)(F)F)C(F)(F)F` [sevoflurane], the TEAD-luciferase reporter activity runs as follows: (compound concentration: 200 nM) inactive: -1.19; (compound concentration: 2 uM) inactive: 0.0579; (compound concentration: 10 uM) inactive: -1.54.

In the case of `CC(C)c1ccc(N2N=C3CSCC=C3C(C#N)=C2N)cc1`, the TEAD-luciferase reporter activity is, setting by setting: (compound concentration: 200 nM) inactive: 0.405; (compound concentration: 2 uM) inactive: -1.17; (compound concentration: 10 uM) inactive: 1.23.

Turning to `CN1CCC(C(=O)N2Cc3ccccc3CC3(CCCN3C)C2)CC1` (centres undefined), the TEAD-luciferase reporter activity (compound concentration: 200 nM) was inactive: 1.29 and the TEAD-luciferase reporter activity (compound concentration: 10 uM) is inactive: -0.931.

Take `CCCCOC(=O)NS(=O)(=O)c1sc(CC(C)C)cc1-c1ccc(Cn2ccnc2)cc1`: the TEAD-luciferase reporter activity by setting is: (compound concentration: 200 nM) inactive: -1.45; (compound concentration: 2 uM) inactive: -0.364; (compound concentration: 10 uM) inactive: 1.07.

For the compound `COc1cccc(-c2cc(F)ccc2[C@H]2Cc3nc(N)nc(C)c3C(=O)N2)n1`, the TEAD-luciferase reporter activity (compound concentration: 200 nM) is inactive: -2.07, the TEAD-luciferase reporter activity (compound concentration: 2 uM) is inactive: -1.22 and the TEAD-luciferase reporter activity (compound concentration: 10 uM) is inactive: -3.53.

Consider `CCC(=O)N1Cc2ccccc2CC2(CCCCN2CC2CCNC2)C1` (centres undefined), for which the TEAD-luciferase reporter activity (compound concentration: 200 nM) is inactive: 2.32 and the TEAD-luciferase reporter activity (compound concentration: 10 uM) is inactive: -0.0658.

With `Cc1cn(-c2cc(C)c3[nH]c(=O)ccc3c2)c(C)n1`, the TEAD-luciferase reporter activity was inactive: -1.49 (compound concentration: 200 nM), inactive: -1.2 (compound concentration: 2 uM) and inactive: 3.54 (compound concentration: 10 uM).

Consider `COc1ccc(CCN(C)CCCOc2ccc(S(=O)(=O)c3c(C(C)C)c4ccccc4n3C)cc2)cc1OC`, for which the TEAD-luciferase reporter activity by setting is: (compound concentration: 200 nM) inactive: -0.881; (compound concentration: 2 uM) inactive: 2.32; (compound concentration: 10 uM) inactive: -0.736.

Turning to `N#Cc1cc(O)c(O)c(C#N)c1/C=C/CC1CCCC1`, the TEAD-luciferase reporter activity by setting is: (compound concentration: 200 nM) inactive: 0.599; (compound concentration: 2 uM) inactive: 0.0159; (compound concentration: 10 uM) inactive: 2.37.

In the case of `c1ccc2c(CCC3CCNCC3)c[nH]c2c1` [indalpine], the TEAD-luciferase reporter activity is inactive: -1.14 (compound concentration: 200 nM) and inactive: -1.11 (compound concentration: 10 uM).

For `COC1C(O)C(O)C(O)C(O)C1O` [D-Pinitol], the TEAD-luciferase reporter activity reads like this: (compound concentration: 200 nM) inactive: -1.59; (compound concentration: 2 uM) inactive: -0.385; (compound concentration: 10 uM) inactive: 0.442.
